In paper PMC4729931:

Columns and labels:
[1] = target: T1, VANGL2 (human (endogenous in SUM149, SKBR7, PDX)) (UniProt Q9ULK5); assay: affinity purification with mass spectrometry
T1 sequence: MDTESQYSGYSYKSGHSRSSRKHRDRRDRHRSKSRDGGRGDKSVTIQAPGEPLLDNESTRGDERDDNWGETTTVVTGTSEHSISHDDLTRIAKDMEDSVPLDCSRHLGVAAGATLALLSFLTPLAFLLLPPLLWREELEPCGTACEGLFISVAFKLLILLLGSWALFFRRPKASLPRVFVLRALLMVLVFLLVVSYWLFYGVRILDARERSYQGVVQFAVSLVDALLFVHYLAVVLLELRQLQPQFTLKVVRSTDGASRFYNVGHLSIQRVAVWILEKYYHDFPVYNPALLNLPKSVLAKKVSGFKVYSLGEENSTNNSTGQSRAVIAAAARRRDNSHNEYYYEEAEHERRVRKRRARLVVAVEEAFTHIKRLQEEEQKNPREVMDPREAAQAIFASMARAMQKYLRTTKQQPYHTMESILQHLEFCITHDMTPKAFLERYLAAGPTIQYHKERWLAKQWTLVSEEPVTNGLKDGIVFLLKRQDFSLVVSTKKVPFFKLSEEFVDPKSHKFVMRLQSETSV

[2] = target: T1, VANGL2 (human (endogenous in SUM149, SKBR7, PDX)); assay: affinity purification with mass spectrometry; endogenous VANGL2 complexes immunoprecipitated from SUM149 cell extracts with 2G4 anti-VANGL2 antibody; controls: beads alone or isotypic antibody; LC-MS/MS (LTQ-Velos-Orbitrap)

- binding [1]: binds
- binding [2]: binds
B1: VANGL1 (protein, UniProt Q8TAA9 1-524)
chain: MDTESTYSGYSYYSSHSKKSHRQGERTRERHKSPRNKDGRGSEKSVTIQPPTGEPLLGNDSTRTEEVQDDNWGETTTAITGTSEHSISQEDIARISKDMEDSVGLDCKRYLGLTVASFLGLLVFLTPIAFILLPPILWRDELEPCGTICEGLFISMAFKLLILLIGTWALFFRKRRADMPRVFVFRALLLVLIFLFVVSYWLFYGVRILDSRDRNYQGIVQYAVSLVDALLFIHYLAIVLLELRQLQPMFTLQVVRSTDGESRFYSLGHLSIQRAALVVLENYYKDFTIYNPNLLTASKFRAAKHMAGLKVYNVDGPSNNATGQSRAMIAAAARRRDSSHNELYYEEAEHERRVKKRKARLVVAVEEAFIHIQRLQAEEQQKAPGEVMDPREAAQAIFPSMARALQKYLRITRQQNYHSMESILQHLAFCITNGMTPKAFLERYLSAGPTLQYDKDRWLSTQWRLVSDEAVTNGLRDGIVFVLKCLDFSLVVNVKKIPFIILSEEFIDPKSHKFVLRLQSETSV

No constants are given. Whether binding was seen depends on the method and setting. In cells and extracts the contact can be indirect. A yes stands for co-enrichment or nearness to the bait. Other partners may have been found.
